# Experimental data reported in the supplement of paper PMC7666118.
# Sequences of proteins named here, by UniProt entry; tags and fusion partners are left off. A change or cut given only in a name is not applied to a line headed by its entry.
# UniProt P52565: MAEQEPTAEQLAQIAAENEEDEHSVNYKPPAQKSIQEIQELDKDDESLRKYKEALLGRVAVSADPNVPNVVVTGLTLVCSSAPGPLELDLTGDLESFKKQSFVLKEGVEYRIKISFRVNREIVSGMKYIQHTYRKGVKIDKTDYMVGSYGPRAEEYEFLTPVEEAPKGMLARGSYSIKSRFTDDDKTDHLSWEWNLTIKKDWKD
# UniProt Q92685: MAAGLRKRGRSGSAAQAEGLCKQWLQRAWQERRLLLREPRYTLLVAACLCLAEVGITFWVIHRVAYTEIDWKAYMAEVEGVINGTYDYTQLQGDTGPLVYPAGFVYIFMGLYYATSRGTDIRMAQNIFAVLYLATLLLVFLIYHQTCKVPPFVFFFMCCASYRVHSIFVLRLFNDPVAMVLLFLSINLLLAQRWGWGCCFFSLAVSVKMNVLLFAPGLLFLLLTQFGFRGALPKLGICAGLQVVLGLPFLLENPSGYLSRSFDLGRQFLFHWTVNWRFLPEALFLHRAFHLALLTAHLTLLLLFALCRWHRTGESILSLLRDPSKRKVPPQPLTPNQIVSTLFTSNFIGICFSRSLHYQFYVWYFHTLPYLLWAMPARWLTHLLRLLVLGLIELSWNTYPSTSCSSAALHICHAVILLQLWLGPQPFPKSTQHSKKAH
# UniProt Q09666: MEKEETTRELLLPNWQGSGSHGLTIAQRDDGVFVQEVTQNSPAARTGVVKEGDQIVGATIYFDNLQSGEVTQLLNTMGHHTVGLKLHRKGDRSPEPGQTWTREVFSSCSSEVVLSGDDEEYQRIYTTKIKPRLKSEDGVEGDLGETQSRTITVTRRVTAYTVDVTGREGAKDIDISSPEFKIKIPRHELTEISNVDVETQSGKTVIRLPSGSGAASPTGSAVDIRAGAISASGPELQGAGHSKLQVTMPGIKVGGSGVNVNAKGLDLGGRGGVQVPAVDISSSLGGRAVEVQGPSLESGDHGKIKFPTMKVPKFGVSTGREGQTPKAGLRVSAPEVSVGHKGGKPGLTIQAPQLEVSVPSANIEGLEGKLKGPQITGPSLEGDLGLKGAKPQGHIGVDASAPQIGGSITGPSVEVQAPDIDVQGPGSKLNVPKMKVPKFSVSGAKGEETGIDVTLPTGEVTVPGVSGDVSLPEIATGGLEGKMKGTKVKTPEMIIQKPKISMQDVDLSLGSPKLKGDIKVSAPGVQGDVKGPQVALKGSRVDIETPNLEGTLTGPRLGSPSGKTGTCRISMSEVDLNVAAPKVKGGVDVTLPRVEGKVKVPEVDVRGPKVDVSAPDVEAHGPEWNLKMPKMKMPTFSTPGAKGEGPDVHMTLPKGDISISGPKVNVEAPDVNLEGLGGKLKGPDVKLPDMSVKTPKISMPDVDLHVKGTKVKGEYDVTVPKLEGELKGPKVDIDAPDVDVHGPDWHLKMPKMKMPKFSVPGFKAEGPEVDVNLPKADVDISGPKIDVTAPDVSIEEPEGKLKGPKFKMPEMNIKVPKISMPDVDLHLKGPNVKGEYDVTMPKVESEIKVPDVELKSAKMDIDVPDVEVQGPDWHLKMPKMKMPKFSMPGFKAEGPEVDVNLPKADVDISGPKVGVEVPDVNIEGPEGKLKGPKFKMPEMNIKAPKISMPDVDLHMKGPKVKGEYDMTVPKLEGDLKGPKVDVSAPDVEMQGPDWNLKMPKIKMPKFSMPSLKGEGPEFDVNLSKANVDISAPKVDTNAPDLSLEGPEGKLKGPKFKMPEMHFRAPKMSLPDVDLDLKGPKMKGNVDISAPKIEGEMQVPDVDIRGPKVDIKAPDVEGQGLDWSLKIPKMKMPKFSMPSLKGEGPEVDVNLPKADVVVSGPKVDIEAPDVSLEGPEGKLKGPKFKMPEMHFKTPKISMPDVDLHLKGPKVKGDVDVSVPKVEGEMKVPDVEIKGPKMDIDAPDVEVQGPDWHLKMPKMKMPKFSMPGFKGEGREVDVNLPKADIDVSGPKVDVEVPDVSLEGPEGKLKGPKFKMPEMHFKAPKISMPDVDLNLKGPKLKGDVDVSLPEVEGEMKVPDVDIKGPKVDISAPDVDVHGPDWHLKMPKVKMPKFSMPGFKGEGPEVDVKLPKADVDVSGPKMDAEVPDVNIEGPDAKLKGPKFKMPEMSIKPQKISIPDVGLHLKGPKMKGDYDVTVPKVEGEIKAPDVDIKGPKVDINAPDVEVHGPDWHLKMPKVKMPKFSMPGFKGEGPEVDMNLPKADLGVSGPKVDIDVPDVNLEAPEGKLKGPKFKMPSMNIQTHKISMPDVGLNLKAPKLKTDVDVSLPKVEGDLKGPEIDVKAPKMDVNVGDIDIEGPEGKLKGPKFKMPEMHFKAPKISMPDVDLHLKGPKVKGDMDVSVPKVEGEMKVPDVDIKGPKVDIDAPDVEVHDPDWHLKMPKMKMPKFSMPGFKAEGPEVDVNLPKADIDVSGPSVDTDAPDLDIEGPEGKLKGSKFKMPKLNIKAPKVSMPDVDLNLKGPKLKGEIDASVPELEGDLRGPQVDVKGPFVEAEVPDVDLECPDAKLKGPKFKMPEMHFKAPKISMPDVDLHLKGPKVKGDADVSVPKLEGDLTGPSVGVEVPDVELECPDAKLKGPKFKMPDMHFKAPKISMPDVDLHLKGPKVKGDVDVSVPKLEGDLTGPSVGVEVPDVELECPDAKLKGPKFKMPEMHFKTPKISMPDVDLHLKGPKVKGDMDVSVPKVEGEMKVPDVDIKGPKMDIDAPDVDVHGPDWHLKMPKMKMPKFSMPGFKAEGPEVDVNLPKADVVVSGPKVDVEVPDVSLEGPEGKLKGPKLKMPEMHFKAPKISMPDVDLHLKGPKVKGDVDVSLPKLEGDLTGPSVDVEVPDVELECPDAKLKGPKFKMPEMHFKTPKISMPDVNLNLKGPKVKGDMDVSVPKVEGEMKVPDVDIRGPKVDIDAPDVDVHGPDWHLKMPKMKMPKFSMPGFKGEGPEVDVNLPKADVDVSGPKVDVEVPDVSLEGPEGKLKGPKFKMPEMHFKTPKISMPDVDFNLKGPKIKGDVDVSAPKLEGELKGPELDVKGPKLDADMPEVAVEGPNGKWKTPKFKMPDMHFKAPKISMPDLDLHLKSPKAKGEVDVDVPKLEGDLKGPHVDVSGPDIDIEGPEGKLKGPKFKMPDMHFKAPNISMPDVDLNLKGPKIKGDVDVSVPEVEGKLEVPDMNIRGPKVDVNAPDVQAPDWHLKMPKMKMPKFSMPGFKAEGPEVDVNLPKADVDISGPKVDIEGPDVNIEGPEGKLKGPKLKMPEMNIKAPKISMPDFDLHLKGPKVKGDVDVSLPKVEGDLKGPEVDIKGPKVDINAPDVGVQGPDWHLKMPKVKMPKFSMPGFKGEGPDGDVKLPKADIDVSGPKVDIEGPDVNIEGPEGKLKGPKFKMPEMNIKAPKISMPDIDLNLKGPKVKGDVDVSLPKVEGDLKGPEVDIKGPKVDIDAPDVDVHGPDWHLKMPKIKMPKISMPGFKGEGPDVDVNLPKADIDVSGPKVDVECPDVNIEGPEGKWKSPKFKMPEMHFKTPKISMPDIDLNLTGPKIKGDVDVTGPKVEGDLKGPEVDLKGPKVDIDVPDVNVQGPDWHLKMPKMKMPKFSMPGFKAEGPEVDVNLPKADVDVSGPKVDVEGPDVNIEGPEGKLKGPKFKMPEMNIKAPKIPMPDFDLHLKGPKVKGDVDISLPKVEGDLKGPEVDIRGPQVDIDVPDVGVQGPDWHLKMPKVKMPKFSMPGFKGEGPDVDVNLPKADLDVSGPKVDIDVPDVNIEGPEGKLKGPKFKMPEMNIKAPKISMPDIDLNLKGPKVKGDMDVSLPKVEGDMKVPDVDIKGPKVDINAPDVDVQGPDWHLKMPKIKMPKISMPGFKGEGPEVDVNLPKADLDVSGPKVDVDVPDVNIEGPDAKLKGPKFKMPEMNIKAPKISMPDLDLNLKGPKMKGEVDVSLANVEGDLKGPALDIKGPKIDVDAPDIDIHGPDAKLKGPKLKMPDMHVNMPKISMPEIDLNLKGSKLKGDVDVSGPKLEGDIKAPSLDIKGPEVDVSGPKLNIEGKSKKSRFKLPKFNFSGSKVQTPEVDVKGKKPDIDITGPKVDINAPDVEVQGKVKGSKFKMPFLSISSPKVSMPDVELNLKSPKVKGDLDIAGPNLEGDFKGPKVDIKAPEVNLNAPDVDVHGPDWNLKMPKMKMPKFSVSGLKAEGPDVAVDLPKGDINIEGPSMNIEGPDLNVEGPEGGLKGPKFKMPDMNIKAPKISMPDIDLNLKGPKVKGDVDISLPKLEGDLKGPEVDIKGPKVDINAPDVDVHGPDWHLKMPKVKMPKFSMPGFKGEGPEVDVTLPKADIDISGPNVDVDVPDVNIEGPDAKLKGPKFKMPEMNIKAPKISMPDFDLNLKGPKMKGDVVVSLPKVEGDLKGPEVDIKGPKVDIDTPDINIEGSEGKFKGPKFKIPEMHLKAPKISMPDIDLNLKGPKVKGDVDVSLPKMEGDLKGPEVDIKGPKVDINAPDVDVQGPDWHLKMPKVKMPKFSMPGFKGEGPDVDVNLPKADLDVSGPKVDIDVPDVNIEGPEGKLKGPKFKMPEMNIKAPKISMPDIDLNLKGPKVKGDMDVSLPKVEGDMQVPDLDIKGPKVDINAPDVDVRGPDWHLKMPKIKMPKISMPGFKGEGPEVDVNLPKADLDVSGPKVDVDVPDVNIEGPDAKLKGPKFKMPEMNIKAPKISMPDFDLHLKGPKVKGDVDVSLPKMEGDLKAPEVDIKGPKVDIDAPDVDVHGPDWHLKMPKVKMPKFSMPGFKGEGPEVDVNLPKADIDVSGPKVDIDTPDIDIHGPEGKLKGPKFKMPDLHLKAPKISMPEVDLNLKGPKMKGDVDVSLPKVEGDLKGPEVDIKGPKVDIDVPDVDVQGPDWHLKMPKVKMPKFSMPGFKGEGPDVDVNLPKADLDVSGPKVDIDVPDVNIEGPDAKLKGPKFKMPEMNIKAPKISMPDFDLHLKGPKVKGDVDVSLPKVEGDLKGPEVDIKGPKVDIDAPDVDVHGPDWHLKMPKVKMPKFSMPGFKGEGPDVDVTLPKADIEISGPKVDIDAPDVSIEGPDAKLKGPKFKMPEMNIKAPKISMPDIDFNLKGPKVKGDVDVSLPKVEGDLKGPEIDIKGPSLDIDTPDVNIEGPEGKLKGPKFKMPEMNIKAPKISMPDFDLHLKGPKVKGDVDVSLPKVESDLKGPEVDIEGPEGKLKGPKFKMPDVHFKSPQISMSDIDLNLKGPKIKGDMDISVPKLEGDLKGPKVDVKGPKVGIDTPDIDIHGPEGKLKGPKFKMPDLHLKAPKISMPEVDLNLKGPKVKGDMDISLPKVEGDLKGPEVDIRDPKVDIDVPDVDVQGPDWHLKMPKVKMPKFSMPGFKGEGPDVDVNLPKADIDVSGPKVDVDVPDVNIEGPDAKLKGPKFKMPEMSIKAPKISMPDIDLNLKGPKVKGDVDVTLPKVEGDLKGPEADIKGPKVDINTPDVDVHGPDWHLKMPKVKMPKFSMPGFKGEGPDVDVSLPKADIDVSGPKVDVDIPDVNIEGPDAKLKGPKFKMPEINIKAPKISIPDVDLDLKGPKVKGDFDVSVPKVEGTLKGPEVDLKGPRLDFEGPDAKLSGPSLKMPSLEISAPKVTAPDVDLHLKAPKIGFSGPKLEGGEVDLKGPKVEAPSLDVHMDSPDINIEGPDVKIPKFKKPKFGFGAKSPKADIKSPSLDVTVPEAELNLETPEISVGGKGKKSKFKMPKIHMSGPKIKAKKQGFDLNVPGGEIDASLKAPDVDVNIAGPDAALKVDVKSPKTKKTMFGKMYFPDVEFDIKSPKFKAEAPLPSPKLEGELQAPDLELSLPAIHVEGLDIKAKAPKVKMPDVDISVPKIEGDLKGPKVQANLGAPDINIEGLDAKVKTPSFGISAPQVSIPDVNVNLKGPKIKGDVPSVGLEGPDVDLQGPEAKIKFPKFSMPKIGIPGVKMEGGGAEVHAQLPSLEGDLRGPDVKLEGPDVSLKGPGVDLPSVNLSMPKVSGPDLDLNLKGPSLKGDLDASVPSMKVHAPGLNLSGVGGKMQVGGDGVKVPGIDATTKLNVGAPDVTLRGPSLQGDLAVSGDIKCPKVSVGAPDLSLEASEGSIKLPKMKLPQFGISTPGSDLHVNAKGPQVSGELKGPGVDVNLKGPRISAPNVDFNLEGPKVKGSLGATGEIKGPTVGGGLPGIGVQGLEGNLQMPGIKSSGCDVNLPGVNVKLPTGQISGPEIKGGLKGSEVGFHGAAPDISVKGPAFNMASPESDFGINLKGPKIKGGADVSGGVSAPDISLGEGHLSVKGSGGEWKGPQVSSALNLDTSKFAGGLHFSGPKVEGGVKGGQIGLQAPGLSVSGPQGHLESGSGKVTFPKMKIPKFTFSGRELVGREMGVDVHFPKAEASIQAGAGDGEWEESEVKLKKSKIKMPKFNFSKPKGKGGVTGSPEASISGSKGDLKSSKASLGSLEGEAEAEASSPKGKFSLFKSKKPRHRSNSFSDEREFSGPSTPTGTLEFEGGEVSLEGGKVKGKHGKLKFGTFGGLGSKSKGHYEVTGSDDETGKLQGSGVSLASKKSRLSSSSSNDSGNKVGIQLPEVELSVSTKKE
# This is one part of the list.
# Compound: COc1ccc(Cn2ccc3cc(C)c(C(=O)NO)cc32)cc1
# Assay: dose-dependent thermal stabilisation call (2D-TPP, DLPTP, 10% FDR) (binary (1 = stabilised)); higher = stabilised by the compound
# Conditions: system: HL-60 intact cells; concentration range 0.04-10 µM
# Protocol: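 2D thermal proteome profiling in intact HL-60 cells treated with BRD-3811 (0, 0.04, 0.29, 2, 10 uM) for 90 min at 37 C, then heated 3 min at one of 12 temperatures (42-63.9 C). Soluble protein was quantified by TMT10 MS. The value is the DLPTP call of the paper: dose-dependent thermal stabilisation over all temperatures at 10% FDR (F-test of a dose-response against a flat model); one experiment, one call per tested protein.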
row,Target,dose-dependent thermal stabilisation call
1,ASF1B (UniProt Q9NVP2),inactive: 0
2,APEX1 (UniProt P27695),inactive: 0
3,ARPP-19,inactive: 0
4,ATM (UniProt Q13315),inactive: 0
5,ALKBH8 (UniProt Q96BT7),inactive: 0
6,ANKRD28 (UniProt O15084),inactive: 0
7,ATAD2 (UniProt Q6PL18),inactive: 0
8,ARHGDIA (UniProt P52565),inactive: 0
9,APTX (UniProt Q7Z2E3),inactive: 0
10,AP4B1 (UniProt Q9Y6B7),inactive: 0
11,AP2A2 (UniProt O94973),inactive: 0
12,APBA3 (UniProt O96018),inactive: 0
13,ALDH4A1 (UniProt P30038),inactive: 0
14,ATG7 (UniProt O95352),inactive: 0
15,ARHGEF11 (UniProt O15085),inactive: 0
16,ALG3 (UniProt Q92685),inactive: 0
17,ASH2L (UniProt Q9UBL3),inactive: 0
18,AGRN (UniProt O00468),inactive: 0

row,Target,dose-dependent thermal stabilisation call
1,AKNA (UniProt Q7Z591),inactive: 0
2,AHNAK (UniProt Q09666),inactive: 0
3,AMFR (UniProt Q9UKV5),inactive: 0
4,ARSB (UniProt P15848),inactive: 0
5,ANKFY1 (UniProt Q9P2R3),inactive: 0
6,AKT1S1 (UniProt Q96B36),inactive: 0
7,APOB48R (UniProt Q0VD83),inactive: 0
8,ASXL2 (UniProt Q76L83),inactive: 0
9,ARL6IP5 (UniProt O75915),inactive: 0
10,ALG9 (UniProt Q9H6U8),inactive: 0
11,ARHGAP17 (UniProt Q68EM7),inactive: 0
12,ALG13 (UniProt Q9NP73),inactive: 0
13,AMOTL1 (UniProt Q8IY63),inactive: 0
14,ARID1B (UniProt Q8NFD5),inactive: 0
15,ARNT (UniProt P27540),inactive: 0
16,ALS2 (UniProt Q96Q42),inactive: 0
17,ALDH1L1 (UniProt O75891),inactive: 0
18,ARHGDIB (UniProt P52566),inactive: 0

# Single entries from the entries so far:
# Entry for ARL6IP5 (UniProt O75915) under dose-dependent thermal stabilisation call: inactive: 0
# Entry for ALS2 (UniProt Q96Q42) under dose-dependent thermal stabilisation call: inactive: 0
